We go through 52 compounds from the supplement of paper PMC4371806.

Whole data set: some 1,600 compounds, median “plate-normalized OD600 growth (mean of duplicates)” near 0.31, cut for the lowest 2% near 0.23. The list shows a part of the results.

This experiment relates to Escherichia coli BW25113. The experiment in a line: plate-normalized OD600 growth (mean of duplicates) (OD600 (normalized)); higher = more growth (less inhibition). As to conditions: 10 µM. The procedure:
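E. coli BW25113 in LB (100 µl, 96-well, no shaking) was exposed to 10 µM of each compound (here the ChemBridge subset of a ~30,000-member library) and grown at 37°C for 24 h or 15°C for 48 h, in duplicate. Growth was read as OD600 and the duplicate ODs were normalized across screening plates to correct plate-to-plate variation.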

For `CN(C)c1ccc(/C=C/c2ccc3ccccc3n2)cc1`, the “plate-normalized OD600 growth” value (temperature: 15°C, 48 h) amounted to 0.242 and the “plate-normalized OD600 growth” value (temperature: 37°C, 24 h) came to 0.631.
The corresponding values for `OC1CCN(Cc2ccc(Cl)cc2Cl)CC1` are 0.254 and 0.605.
`CN1C(=O)C(C)(C)N(C(=O)c2cccc([N+](=O)[O-])c2)c2ccccc21`: the “plate-normalized OD600 growth” value is, setting by setting: (temperature: 15°C, 48 h) 0.253; (temperature: 37°C, 24 h) 0.643.
Taken in the same sequence, the figures for `Cc1[nH]nc2c1C(c1cc3c(cc1Cl)OCO3)C(C#N)=C(N)O2` (centres undefined) were 0.253 and 0.616.
On to `COc1ccc(O)c(CN2CCCC(C)C2)c1` (centres undefined), for which the “plate-normalized OD600 growth” value (temperature: 15°C, 48 h) was found to be 0.27 and the “plate-normalized OD600 growth” value (temperature: 37°C, 24 h) was determined as 0.602.
Taken in the same sequence, the figures for `CC1(C)CC(n2c(NN)nc3c(c2=O)C2(CCCCC2)Cc2ccccc2-3)CCO1` (centres undefined) were 0.255 and 0.631.
Taken in the same sequence, the figures for `Nc1nc2nc(-c3ccccc3)cc(=O)n2[nH]1` were 0.236 and 0.613.
Taken in the same sequence, the figures for `CC(=O)c1ccc(NS(=O)(=O)c2cc(S(=O)(=O)c3ccccc3)ccc2C)cc1` were 0.278 and 0.649.
Consider `COc1ccc(N2C(=O)CC(N3CCN(c4ccc(F)cc4)CC3)C2=O)cc1` (centres undefined), for which the “plate-normalized OD600 growth” value stood at 0.24 (temperature: 15°C, 48 h) and 0.59 (temperature: 37°C, 24 h).
With `Brc1ccccc1OCCCN1CCOCC1`, the “plate-normalized OD600 growth” value (temperature: 15°C, 48 h) came out at 0.228 and the “plate-normalized OD600 growth” value (temperature: 37°C, 24 h) stood at 0.612.
Taken in the same sequence, the figures for `CCCCOc1ccc(/C=C(/C#N)c2nc3ccccc3[nH]2)cc1` were 0.261 and 0.613.
As for `COc1cc([N+](=O)[O-])c(C)cc1NC(C)=O`, the “plate-normalized OD600 growth” value is, setting by setting: (temperature: 15°C, 48 h) 0.262; (temperature: 37°C, 24 h) 0.63.
Taken in the same sequence, the figures for `CSc1ccc(CN2CCCN(C)CC2)cc1` were 0.259 and 0.649.
Take `O=C(O)C1Cc2c([nH]c3ccccc23)C(c2cccc(Br)c2)N1` (centres undefined): the “plate-normalized OD600 growth” value was 0.264 (temperature: 15°C, 48 h) and 0.636 (temperature: 37°C, 24 h).
Turning to `COc1ccc(N(CCC#N)S(=O)(=O)c2cccc3nsnc23)cc1`, the “plate-normalized OD600 growth” value runs as follows: (temperature: 15°C, 48 h) 0.248; (temperature: 37°C, 24 h) 0.614.
`COc1ccc(/C(C#N)=C/c2ccc3c(c2)OCO3)cc1OC`: the “plate-normalized OD600 growth” value is, setting by setting: (temperature: 15°C, 48 h) 0.247; (temperature: 37°C, 24 h) 0.613.
The corresponding values for `CN(C)c1nc(-c2ccccc2O)nc2ccccc12` are 0.227 and 0.603.
Taken in the same sequence, the figures for `Brc1ccc(C2NCCc3c2[nH]c2ccccc32)cc1` (centres undefined) were 0.233 and 0.6.
For the compound `Cc1onc(-c2ccccc2Cl)c1C(=O)N1CC(C)OC(C)C1` (centres undefined), the “plate-normalized OD600 growth” value is, setting by setting: (temperature: 15°C, 48 h) 0.279; (temperature: 37°C, 24 h) 0.661.
The corresponding values for `CCCOc1ccccc1/C=C/c1[nH]c(=O)[nH]c(=O)c1[N+](=O)[O-]` are 0.251 and 0.62.
The corresponding values for `C=CCc1c(C)nc(SCCCC)[nH]c1=O` are 0.237 and 0.635.
Taken in the same sequence, the figures for `O=[N+]([O-])c1ccc(C2=CSC3=NCCN23)cc1` were 0.252 and 0.63.
For the compound `O=C1CC(N2CCN(c3ccc(F)cc3)CC2)C(=O)N1c1ccc(I)cc1` (centres undefined), the “plate-normalized OD600 growth” value runs as follows: (temperature: 15°C, 48 h) 0.242; (temperature: 37°C, 24 h) 0.619.
Taken in the same sequence, the figures for `O=C1CC(c2ccc([N+](=O)[O-])cc2)=NN1c1cc(S(=O)(=O)O)ccc1Cl` were 0.263 and 0.623.
The corresponding values for `CC(c1ccccc1)C1CC(=O)N(c2ccccc2)C1=O` (centres undefined) are 0.255 and 0.602.
Regarding `CC(=O)Nc1cc2nc3ccccc3nc2cc1NC(C)=O`, the “plate-normalized OD600 growth” value was determined as 0.235 (temperature: 15°C, 48 h) and 0.656 (temperature: 37°C, 24 h).
The corresponding values for `Cn1c(SCC(=O)NC2CCCCC2)nc2sc3c(c2c1=O)CCCC3` are 0.267 and 0.648.
The corresponding values for `Cc1cc(N)ccc1-c1ccc([N+](=O)[O-])cc1C` are 0.27 and 0.624.
Taken in the same sequence, the figures for `COc1ccc(NCCNc2ccc(OC)cc2)cc1` were 0.231 and 0.6.
Regarding `CC1CN(C/C=C/c2ccccc2[N+](=O)[O-])CC(C)O1` (centres undefined), the “plate-normalized OD600 growth” value came to 0.252 (temperature: 15°C, 48 h) and 0.609 (temperature: 37°C, 24 h).
Taken in the same sequence, the figures for `CN(C)c1ccc(C(O)(c2ccccc2)c2ccccc2)cc1` were 0.249 and 0.624.
`COc1ccc2[nH]cc(CCNC(N)=O)c2c1`: the “plate-normalized OD600 growth” value is, setting by setting: (temperature: 15°C, 48 h) 0.245; (temperature: 37°C, 24 h) 0.623.
Regarding `O=C(Nc1ccc(Br)cc1)c1cccc(S(=O)(=O)Nc2ccccn2)c1`, the “plate-normalized OD600 growth” value is, setting by setting: (temperature: 15°C, 48 h) 0.244; (temperature: 37°C, 24 h) 0.586.
In the case of `CC(=O)c1ccc(N2CCN(CC3=CC[C@H]4C[C@@H]3C4(C)C)CC2)cc1`, the “plate-normalized OD600 growth” value runs as follows: (temperature: 15°C, 48 h) 0.249; (temperature: 37°C, 24 h) 0.607.
On to `O=C(Nc1ccccc1F)c1ccc([N+](=O)[O-])o1`, for which the “plate-normalized OD600 growth” value (temperature: 15°C, 48 h) was 0.201 and the “plate-normalized OD600 growth” value (temperature: 37°C, 24 h) is 0.592.
Regarding `COCCCNC(=O)c1cccc(Cl)c1`, the “plate-normalized OD600 growth” value (temperature: 15°C, 48 h) stood at 0.249 and the “plate-normalized OD600 growth” value (temperature: 37°C, 24 h) stood at 0.608.
Taken in the same sequence, the figures for `CCN(CC)CCNC(=O)c1cc([N+](=O)[O-])c(N(C)C)cc1OC` were 0.258 and 0.607.
The corresponding values for `CCOc1ccccc1NS(=O)(=O)N(C)C` are 0.258 and 0.62.
The corresponding values for `COc1cccc(OC)c1C(=O)N1CCN(C(=O)CC(C)C)CC1` are 0.237 and 0.622.
With `Fc1ccccc1N1CCN(CCCc2ccccc2)CC1`, the “plate-normalized OD600 growth” value reads like this: (temperature: 15°C, 48 h) 0.248; (temperature: 37°C, 24 h) 0.618.
The corresponding values for `c1coc(CN2CCN(C3CCCCCC3)CC2)c1` are 0.246 and 0.612.
As for `COc1ccc(CC(=O)N2CCOCC2)cc1`, the “plate-normalized OD600 growth” value runs as follows: (temperature: 15°C, 48 h) 0.245; (temperature: 37°C, 24 h) 0.631.
For the compound `COc1ccc(C(=O)c2sc3nc(C)cc(C)c3c2N)cc1`, the “plate-normalized OD600 growth” value is, setting by setting: (temperature: 15°C, 48 h) 0.263; (temperature: 37°C, 24 h) 0.644.
The corresponding values for `Cc1cc(C)nc(SCc2csc(N)n2)n1` are 0.243 and 0.61.
With `CC1CCCCC1NCc1ccc([N+](=O)[O-])cc1` (centres undefined), the “plate-normalized OD600 growth” value reads like this: (temperature: 15°C, 48 h) 0.251; (temperature: 37°C, 24 h) 0.62.
The corresponding values for `CN1CCCN(Cc2ccc3c(c2)OCO3)CC1` are 0.271 and 0.64.
The corresponding values for `CCC(CC)NC(=O)N1CCOCC1` are 0.238 and 0.618.
For `COCc1cc(=O)n2[nH]c(Cc3ccccc3)c(-c3ccc(OC)cc3)c2n1`, the “plate-normalized OD600 growth” value was found to be 0.232 (temperature: 15°C, 48 h) and 0.616 (temperature: 37°C, 24 h).
The corresponding values for `CCOC(=O)N1CCN(Cc2ccc(N(C)C)cc2)CC1` are 0.219 and 0.58.
Taken in the same sequence, the figures for `Cc1cc(-c2ccc([N+](=O)[O-])cc2)c(C#N)c(N)n1` were 0.229 and 0.596.
Taken in the same sequence, the figures for `Cc1cc(=O)[nH]c(SCC(=O)c2ccc(F)cc2)n1` were 0.254 and 0.652.
For `COc1ccc(C(=O)NCCCN2CCOCC2)cc1`, the “plate-normalized OD600 growth” value is, setting by setting: (temperature: 15°C, 48 h) 0.255; (temperature: 37°C, 24 h) 0.631.
